Experimental data: PubChem BioAssay AID1259308 (NCATS, 2017)
Test: 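Knock-downs that increase output of a recombinant reporter protein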 (primary screen). Cells: human HEK293 embryonic kidney cells stably expressing firefly luciferase (HEK-CMV-Luc2-Hygro). Reagents: single siRNA against human genes, 0.8 pmol siRNA per well. Timing: 72 h. Read-out: 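Reporter luminescence and viable-cell signal on separate replicate plates, given as percent of non-targeting control and median/MAD z-scores, plus per-cell luciferase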. Direction: total luciferase, z-score: higher = more reporter protein produced. Rule for the call: 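Active when the median/MAD z-score for overall luciferase is greater than 3; a gene was taken forward for validation with new siRNAs if at least two of its three siRNAs passed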. Meaning of the calls: active = raised luciferase; inactive = no rise.
The whole screen tested about 59,000 reagents; below is a random part of them. About 1,510 of all reagents (2.6%) were called active. 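Calls use total luciferase alone and ignore viability, so some active siRNAs may act by altering cell number.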 The numbers tell different reagents against one gene apart. Not all columns of the deposit are shown.

| gene | reagent | total luciferase, z-score | Outcome |
| --- | --- | --- | --- |
| HEBP2 | 1 | -0.958 | inactive |
| HEBP2 | 2 | 0.23 | inactive |
| HEBP2 | 3 | -0.463 | inactive |
| BMERB1 | 1 | 0.0119 | inactive |
| BMERB1 | 2 | 0.0775 | inactive |
| BMERB1 | 3 | -2.08 | inactive |
| FBXO30 | 1 | 0.492 | inactive |
| FBXO30 | 2 | 1.04 | inactive |
| FBXO30 | 3 | -0.61 | inactive |
| CA2 | 1 | -0.1 | inactive |
| CA2 | 2 | 0.162 | inactive |
| CA2 | 3 | -0.26 | inactive |
| MYT1L | 1 | 2.05 | inactive |
| MYT1L | 2 | 0.184 | inactive |
| MYT1L | 3 | 1.16 | inactive |
| MTG1 | 1 | 0.292 | inactive |
| MTG1 | 2 | -0.904 | inactive |
| MTG1 | 3 | 0.0303 | inactive |
| HSPA4 | 1 | -0.812 | inactive |
| HSPA4 | 2 | 1.07 | inactive |
| HSPA4 | 3 | -0.949 | inactive |
| CLK1 | 1 | -1.71 | inactive |
| CLK1 | 2 | 0.356 | inactive |
| CLK1 | 3 | -0.367 | inactive |
| NFATC1 | 1 | -1.36 | inactive |
| NFATC1 | 2 | -0.468 | inactive |
| NFATC1 | 3 | 1.48 | inactive |
| CALY | 1 | 1.49 | inactive |
| CALY | 2 | -0.17 | inactive |
| CALY | 3 | -1.09 | inactive |
| DNAH12 | 1 | 0.686 | inactive |
| DNAH12 | 2 | 0.332 | inactive |
| DNAH12 | 3 | -1.59 | inactive |
| DNAH12 | 4 | -0.139 | inactive |
| DNAH12 | 5 | -0.825 | inactive |
| DNAH12 | 6 | 2.06 | inactive |
| PIK3R1 | 1 | 0.212 | inactive |
| PIK3R1 | 2 | 0.665 | inactive |
| PIK3R1 | 3 | 0.802 | inactive |
| ZNF239 | 1 | -1.42 | inactive |
| ZNF239 | 2 | -0.0778 | inactive |
| ZNF239 | 3 | 0.425 | inactive |
| MESP1 | 1 | -0.922 | inactive |
| MESP1 | 2 | -0.415 | inactive |
| MESP1 | 3 | -0.942 | inactive |
| CMIP | 1 | 2.76 | inactive |
| CMIP | 2 | 3.29 | active |
| CMIP | 3 | 1.2 | inactive |
| PALS2 | 1 | -1.11 | inactive |
| PALS2 | 2 | 1.32 | inactive |
| PALS2 | 3 | -1.32 | inactive |
| TPD52L1 | 1 | -1.74 | inactive |
| TPD52L1 | 2 | -1.02 | inactive |
| TPD52L1 | 3 | 1.72 | inactive |
| SLC22A17 | 1 | -0.67 | inactive |
| SLC22A17 | 2 | -0.924 | inactive |
| SLC22A17 | 3 | -0.981 | inactive |

A run of entries taken from the entries so far, as a working copy:
| gene | reagent | total luciferase, z-score | Outcome |
| --- | --- | --- | --- |
| CA2 | 3 | -0.26 | inactive |
| MYT1L | 1 | 2.05 | inactive |
| MYT1L | 2 | 0.184 | inactive |
| MYT1L | 3 | 1.16 | inactive |
